# Measurements taken from US20080047904A1, “Treatment for Hydrostatic Testing Water” (priority 2004, published 2008).
# How the values were obtained:
# [1] = Reversion of phosphonate to orthophosphate by oxidizing biocides; assay type: physicochemical
# [2] = as above; assay type: physicochemical; remark: listed apart in the source
# Procedure: The biocides studied consisted of WELLGUARD® 7030, bleach (NaOCl), and activated sodium bromide (NaOCl and NaBr). The WELLGUARD® 7030 and bleach were added directly. Activated sodium bromide was prepared in situ by introducing 20 ppm bromide ion to the stock solution followed by addition of bleach. The phosphonates used in this work consisted of AMP (aminomethylene phosphonic acid), HEDP (hydroxyethylidene diphosphonic acid), and PBTC (phosphonobutanetricarboxylic acid). These materials were commercial samples (Mayoquest 1320, 1500, and 2100, respectively) obtained from Callaway Chemical Co. (Smyrna, Ga.).
# Solutions consisting of 5 ppm scale inhibitor (as active phosphonate) in the presence of 10 ppm oxidant (as Cl2) were prepared as follows. To 900 mL deionized water were added appropriate stock solutions containing phosphonate, alkalinity (NaHCO3), and calcium hardness (CaCl2). The pH was adjusted to 9.1 with 5% aq. NaOH and diluted up to 1 L in a dark amber bottle. A dose of oxidant was added to achieve a residual of 10 ppm. The solutions were then periodically monitored for phosphonate reversion by determining the reversion to orthophosphate (Hach method 490). The oxidant residual was also periodically monitored using the DPD method (Hach method 80). All of this work was performed at room temperature (23° C.). The initial active phosphonate content was confirmed by conversion to orthophosphate via UV/persulfate oxidation followed by a conventional phosphate analysis (Hach method 501). A conversion factor was applied to the phosphate measurement to determine the initial amount of active phosphonate present as follows: AMP, 1.05; HEDP, 1.085; PBTC, 2.85.
smiles,measurement,setting,value
"[Na+].[O-]Cl [Bleach, NaOCl]","Phosphate, average","[1]; 5 ppm PBTC, 10 ppm oxidant (as Cl2), pH 9.1, 23° C., 210-1360 minutes",0.075 ppm
same,Phosphate,"[1]; 5 ppm PBTC, 10 ppm oxidant (as Cl2), pH 9.1, 23° C., 30 minutes",0 ppm
same,Phosphate,"[1]; 5 ppm PBTC, 10 ppm oxidant (as Cl2), pH 9.1, 23° C., 60 minutes",0 ppm
same,Phosphate,"[1]; 5 ppm PBTC, 10 ppm oxidant (as Cl2), pH 9.1, 23° C., 90 minutes",0 ppm
same,Phosphate,"[1]; 5 ppm PBTC, 10 ppm oxidant (as Cl2), pH 9.1, 23° C., 120 minutes",0 ppm
same,Phosphate,"[1]; 5 ppm PBTC, 10 ppm oxidant (as Cl2), pH 9.1, 23° C., 150 minutes",0 ppm
same,Phosphate,"[1]; 5 ppm PBTC, 10 ppm oxidant (as Cl2), pH 9.1, 23° C., 180 minutes",0 ppm
same,Phosphate,"[1]; 5 ppm PBTC, 10 ppm oxidant (as Cl2), pH 9.1, 23° C., 210 minutes",0.12 ppm
same,Phosphate,"[1]; 5 ppm PBTC, 10 ppm oxidant (as Cl2), pH 9.1, 23° C., 270 minutes",0.16 ppm
same,Phosphate,"[1]; 5 ppm PBTC, 10 ppm oxidant (as Cl2), pH 9.1, 23° C., 330 minutes",0.05 ppm
same,Phosphate,"[1]; 5 ppm PBTC, 10 ppm oxidant (as Cl2), pH 9.1, 23° C., 360 minutes",0.02 ppm
same,Phosphate,"[1]; 5 ppm PBTC, 10 ppm oxidant (as Cl2), pH 9.1, 23° C., 390 minutes (first 390 line)",0.02 ppm
same,Phosphate,"[1]; 5 ppm PBTC, 10 ppm oxidant (as Cl2), pH 9.1, 23° C., 390 minutes (second 390 line)",9.5 ppm
same,Phosphate,"[1]; 5 ppm PBTC, 10 ppm oxidant (as Cl2), pH 9.1, 23° C., 1360 minutes",0.08 ppm
same,active phosphonate,"[1]; PBTC solution, 0 minutes, phosphate analysis X conversion factor 2.85",4.1 ppm
same,average amount of phosphonate reversion,"[1]; PBTC, after 3½ hours contact and beyond",5.2%
same,"Phosphate, average","[2]; 5 ppm AMP, 10 ppm oxidant (as Cl2), pH 9.1, 23° C., 100-1360 minutes",0.79 ppm
same,Phosphate,"[2]; 5 ppm AMP, 10 ppm oxidant (as Cl2), pH 9.1, 23° C., 20 minutes",0.35 ppm
same,Phosphate,"[2]; 5 ppm AMP, 10 ppm oxidant (as Cl2), pH 9.1, 23° C., 40 minutes",0.7 ppm
same,Phosphate,"[2]; 5 ppm AMP, 10 ppm oxidant (as Cl2), pH 9.1, 23° C., 70 minutes",0.53 ppm
same,Phosphate,"[2]; 5 ppm AMP, 10 ppm oxidant (as Cl2), pH 9.1, 23° C., 100 minutes",0.75 ppm
same,Phosphate,"[2]; 5 ppm AMP, 10 ppm oxidant (as Cl2), pH 9.1, 23° C., 130 minutes",0.8 ppm
same,Phosphate,"[2]; 5 ppm AMP, 10 ppm oxidant (as Cl2), pH 9.1, 23° C., 190 minutes",0.77 ppm
same,Phosphate,"[2]; 5 ppm AMP, 10 ppm oxidant (as Cl2), pH 9.1, 23° C., 220 minutes",0.59 ppm
same,Phosphate,"[2]; 5 ppm AMP, 10 ppm oxidant (as Cl2), pH 9.1, 23° C., 250 minutes",0.64 ppm
same,Phosphate,"[2]; 5 ppm AMP, 10 ppm oxidant (as Cl2), pH 9.1, 23° C., 280 minutes",0.83 ppm
same,Phosphate,"[2]; 5 ppm AMP, 10 ppm oxidant (as Cl2), pH 9.1, 23° C., 310 minutes",0.82 ppm
same,Phosphate,"[2]; 5 ppm AMP, 10 ppm oxidant (as Cl2), pH 9.1, 23° C., 340 minutes",0.8 ppm
same,Phosphate,"[2]; 5 ppm AMP, 10 ppm oxidant (as Cl2), pH 9.1, 23° C., 370 minutes",0.81 ppm
same,Phosphate,"[2]; 5 ppm AMP, 10 ppm oxidant (as Cl2), pH 9.1, 23° C., 400 minutes",0.79 ppm
same,Phosphate,"[2]; 5 ppm AMP, 10 ppm oxidant (as Cl2), pH 9.1, 23° C., 520 minutes",0.97 ppm
same,Phosphate,"[2]; 5 ppm AMP, 10 ppm oxidant (as Cl2), pH 9.1, 23° C., 1360 minutes",0.91 ppm
same,Phosphate,"[2]; 5 ppm HEDP, 10 ppm oxidant (as Cl2), pH 9.1, 23° C., 20 minutes",0 ppm
same,Phosphate,"[2]; 5 ppm HEDP, 10 ppm oxidant (as Cl2), pH 9.1, 23° C., 40 minutes",0 ppm
same,Phosphate,"[2]; 5 ppm HEDP, 10 ppm oxidant (as Cl2), pH 9.1, 23° C., 70 minutes",0.2 ppm
same,Phosphate,"[2]; 5 ppm HEDP, 10 ppm oxidant (as Cl2), pH 9.1, 23° C., 100 minutes",0.25 ppm
same,Phosphate,"[2]; 5 ppm HEDP, 10 ppm oxidant (as Cl2), pH 9.1, 23° C., 130 minutes",0.31 ppm
same,Phosphate,"[2]; 5 ppm HEDP, 10 ppm oxidant (as Cl2), pH 9.1, 23° C., 190 minutes",0.61 ppm
same,Phosphate,"[2]; 5 ppm HEDP, 10 ppm oxidant (as Cl2), pH 9.1, 23° C., 220 minutes",0.65 ppm
same,Phosphate,"[2]; 5 ppm HEDP, 10 ppm oxidant (as Cl2), pH 9.1, 23° C., 250 minutes",0.39 ppm
same,Phosphate,"[2]; 5 ppm HEDP, 10 ppm oxidant (as Cl2), pH 9.1, 23° C., 280 minutes",0.41 ppm
same,Phosphate,"[2]; 5 ppm HEDP, 10 ppm oxidant (as Cl2), pH 9.1, 23° C., 310 minutes",0.58 ppm
same,Phosphate,"[2]; 5 ppm HEDP, 10 ppm oxidant (as Cl2), pH 9.1, 23° C., 340 minutes",0.65 ppm
same,Phosphate,"[2]; 5 ppm HEDP, 10 ppm oxidant (as Cl2), pH 9.1, 23° C., 370 minutes",0.84 ppm
same,Phosphate,"[2]; 5 ppm HEDP, 10 ppm oxidant (as Cl2), pH 9.1, 23° C., 400 minutes",0.65 ppm
same,Phosphate,"[2]; 5 ppm HEDP, 10 ppm oxidant (as Cl2), pH 9.1, 23° C., 460 minutes",0.95 ppm
same,Phosphate,"[2]; 5 ppm HEDP, 10 ppm oxidant (as Cl2), pH 9.1, 23° C., 520 minutes",0.94 ppm
same,"Phosphate, maximum amount of ortho-phosphate that can be liberated","[2]; AMP solution, 0 minutes, UV/persulfate oxidation, Hach method 501",4.22^1 ppm
same,active phosphonate,"[2]; AMP solution, 0 minutes, phosphate analysis X conversion factor 1.05",4.4 ppm
same,averaged amount of phosphonate reversion,"[2]; AMP, averaged",18.7%
same,active phosphonate,"[2]; HEDP solution, 0 minutes, phosphate analysis X conversion factor 1.085",5.2 ppm
same,relative amount of phosphonate reversion,"[2]; HEDP, after 520 minutes",19.6%
